The source of these data is the supplement of paper PMC10338343.

± gives the standard deviation. This is a selection; strong and weak results do not stand in their true shares. Many of these values have a large error. The list shows a part of the results.

Assay [1] concerns MILI (PIWIL2) piRISC loaded with L1MC piRNA (26 nt). Nature of the assay: pre-steady-state target cleavage rate (min^-1); higher = faster piRNA-guided slicing of the target. The conditions noted are these: guide: L1MC piRNA 5'p-UAACUAAAUACUAUGCAAGCUGUAGG; auxiliary factor: none (no GTSF1). Put shortly:
(§1)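 For Cleave-'n-Seq, a transcribed, DNA-blocked target RNA library […] met 1 nM active affinity-purified piRISC with one synthetic guide at 33 °C for 0–8 or 0–960 min in HEPES–potassium acetate buffer, with or without 500 nM GTSF1 partner protein. Uncleaved targets were sequenced and normalised to depth and weakly complementary targets, with three trials pooled and k3 capped at 0.0001 min^-1. A burst-and-steady-state fit supplied the pre-steady-state cleavage rate.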

Assay [2] concerns MIWI (PIWIL1) piRISC loaded with L1MC piRNA (30 nt). Described as above. The conditions noted are these: guide: L1MC piRNA 5'p-UAACUAAAUACUAUGCAAGCUGUAGGUCCU; auxiliary factor: none (no GTSF1). Put shortly: as §1
The subject of assay [3] is EfPiwi piRISC loaded with L1MC piRNA (26 nt). Nature of the assay: pre-steady-state target cleavage rate (min^-1); guide: L1MC piRNA 5'p-UAACUAAAUACUAUGCAAGCUGUAGG; MIWI and MILI are mouse PIWI proteins and EfPiwi is from a freshwater sponge; tags in brackets are library labels; higher = faster piRNA-guided slicing of the target. Put shortly: as §1
Where [4] appears, read: auxiliary factor: 500 nM Ephydatia muelleri Gtsf1.
The mark [5] stands for this setting: auxiliary factor: none (no Gtsf1).

As for UCCUGCUACAGCUUGCUAAGUAUUUAGUAA, the “pre-steady-state target cleavage rate” value in assay [1] was 0.00125 ± 0.0046; in assay [2] it was 0.00149 ± 0.0031; in assay [3] (setting [4]), 0.0012 ± 0.0039; in assay [3] (setting [5]) it was 0.000182 ± 0.038.

For the sequence UCCUGGUACAGCUUGCAUAGUAUAAUGAAA, the “pre-steady-state target cleavage rate” value came to 0.0015 ± 0.005 in assay [1], 0.00235 ± 0.0038 in assay [2], 0.00267 ± 0.0036 in assay [3] (setting [4]) and 0.000114 ± 0.033 in assay [3] (setting [5]).

For UCCUCCUAGAGCUUGCAUAGUAUUUUCAAA, the “pre-steady-state target cleavage rate” value worked out at 0.000733 ± 0.0068 in assay [1], 0.0012 ± 0.0033 in assay [2], 0.00252 ± 0.0022 in assay [3] (setting [4]) and 0.000337 ± 0.016 in assay [3] (setting [5]).

On to UCCUGGAUGUCCAUGCUUAGUAUUUAGUUA, for which the “pre-steady-state target cleavage rate” value is 0.00201 ± 0.0031 in assay [1], 0.000767 ± 0.0074 in assay [2], 0.000381 ± 0.0085 in assay [3] (setting [4]) and 0.000161 ± 0.046 in assay [3] (setting [5]).

UCCUGGAACAGCUACCAUAGUAUUUUCAAA: the “pre-steady-state target cleavage rate” value was 0.000447 ± 0.013 in assay [1], 0.000732 ± 0.01 in assay [2], 0.000668 ± 0.006 in assay [3] (setting [4]) and 0.000386 ± 0.018 in assay [3] (setting [5]).

Regarding UCCUGGUACAGCUUGCAAUCUAUUUAGAAA, the “pre-steady-state target cleavage rate” value in assay [1] stood at 0.000986 ± 0.0083; in assay [2], 0.00119 ± 0.0049; in assay [3] (setting [4]) it was 0.00031 ± 0.013; in assay [3] (setting [5]), 0.000348 ± 0.019.

Consider UCCUGGUACAGCUUGCUAUGUAUUUAGAAA, for which the “pre-steady-state target cleavage rate” value in assay [1] amounted to 0.000771 ± 0.0071; in assay [2], 0.00104 ± 0.006; in assay [3] (setting [4]), 0.000197 ± 0.018; in assay [3] (setting [5]), 0.000457 ± 0.011.

In the case of UCCUGCUACAGCUUGCAUAGUUUUUAGAAA, the “pre-steady-state target cleavage rate” value in assay [1] was 0.00105 ± 0.0057; in assay [2] it was 0.00296 ± 0.0032; in assay [3] (setting [4]), 0.00343 ± 0.0019; in assay [3] (setting [5]), 0.000309 ± 0.015.

On to UCCUGGAUGUCGAAGCAUAUUAUUUAGUUA, for which the “pre-steady-state target cleavage rate” value in assay [1] was found to be 0.00198 ± 0.0039; in assay [2], 0.000779 ± 0.0093; in assay [3] (setting [4]) it was 0.000375 ± 0.0082; in assay [3] (setting [5]) it was 0.000421 ± 0.016.

UCCUGGAUCACGAUGCAUAGUAUUUACAAA: the “pre-steady-state target cleavage rate” value in assay [1] turned out to be 0.000871 ± 0.0068; in assay [2], 0.00115 ± 0.0074; in assay [3] (setting [4]), 0.00224 ± 0.0047; in assay [3] (setting [5]) it was 0.000305 ± 0.028.

UCCUGGAUCAGCAUGCAUAGUAUUUACAAA: the “pre-steady-state target cleavage rate” value in assay [1] came to 0.00112 ± 0.0061; in assay [2] it was 0.000478 ± 0.0078; in assay [3] (setting [4]), 0.00615 ± 0.0038; in assay [3] (setting [5]), 0.00056 ± 0.0098.

UCCUGGAUCAGCUUGCAUAGAUUUUUCAAA: the “pre-steady-state target cleavage rate” value in assay [1] was 0.00076 ± 0.0055; in assay [2] it was 0.000709 ± 0.0062; in assay [3] (setting [4]), 0.000455 ± 0.0059; in assay [3] (setting [5]), 0.000181 ± 0.036.

As to UCCUGGAACAGCUUGCAUAGUUAAUAGAAA, the “pre-steady-state target cleavage rate” value amounted to 0.00068 ± 0.0087 in assay [1], 0.000468 ± 0.0075 in assay [2], 0.00102 ± 0.0044 in assay [3] (setting [4]) and 0.000563 ± 0.013 in assay [3] (setting [5]).

For UCCUCCUACAGCUUGCAUUCAAUUUAGUAA, the “pre-steady-state target cleavage rate” value in assay [1] was 0.000693 ± 0.0078; in assay [2] it was 0.000743 ± 0.0091; in assay [3] (setting [4]), 0.000845 ± 0.0054; in assay [3] (setting [5]) it was 0.000382 ± 0.011.

On to UCCUCCUACAGCUACCAUAGUAUUUUCAAA, for which the “pre-steady-state target cleavage rate” value was 0.000744 ± 0.0062 in assay [1], 0.000603 ± 0.011 in assay [2], 0.000706 ± 0.0052 in assay [3] (setting [4]) and 0.000142 ± 0.032 in assay [3] (setting [5]).

For UCCUGGAUCAGCUUGCAUAGAUAUUAGAAA, the “pre-steady-state target cleavage rate” value was 0.000442 ± 0.013 in assay [1], 0.000264 ± 0.013 in assay [2], 0.000406 ± 0.0071 in assay [3] (setting [4]) and 0.00054 ± 0.012 in assay [3] (setting [5]).

Regarding UCCUCCUACAGCUUCGUUAGUAUUUACAAA, the “pre-steady-state target cleavage rate” value in assay [1] was 0.000175 ± 0.012; in assay [2], 0.000361 ± 0.01; in assay [3] (setting [4]) it was 0.000318 ± 0.0087; in assay [3] (setting [5]), 0.000204 ± 0.022.

For the sequence UCCUGGUACAGCUUGCAUAGUAAUUUCAAA, the “pre-steady-state target cleavage rate” value turned out to be 0.00166 ± 0.0042 in assay [1], 0.000583 ± 0.0081 in assay [2], 0.0014 ± 0.0035 in assay [3] (setting [4]) and 0.000619 ± 0.015 in assay [3] (setting [5]).

For the sequence UCCUGGAUGAGCAACCAUAGUAUUUAGAAA, the “pre-steady-state target cleavage rate” value came to 0.000693 ± 0.009 in assay [1], 0.000492 ± 0.0061 in assay [2], 0.000425 ± 0.012 in assay [3] (setting [4]) and 0.000292 ± 0.035 in assay [3] (setting [5]).

Take UCCUGCUACAGCUUGCAUAGUAAAAAGUAA: the “pre-steady-state target cleavage rate” value in assay [1] worked out at 0.00113 ± 0.0052; in assay [2], 0.00111 ± 0.0045; in assay [3] (setting [4]), 0.00322 ± 0.0027; in assay [3] (setting [5]), 0.000248 ± 0.022.

As to UCCUGGAUGUCGUUGCAAUCUAUUUAGUUA, the “pre-steady-state target cleavage rate” value was found to be 0.000581 ± 0.0094 in assay [1], 0.000582 ± 0.0084 in assay [2], 0.000449 ± 0.0084 in assay [3] (setting [4]) and 0.000149 ± 0.06 in assay [3] (setting [5]).

Take UCCUGGAUCAGCUUGCAUAGUUAAUACAAA: the “pre-steady-state target cleavage rate” value stood at 0.00114 ± 0.004 in assay [1], 0.00113 ± 0.0046 in assay [2], 0.00216 ± 0.0042 in assay [3] (setting [4]) and 0.000411 ± 0.018 in assay [3] (setting [5]).

For the sequence UCCUGGAUGUCGUUGCAAACUAUUUAGUUA, the “pre-steady-state target cleavage rate” value in assay [1] is 0.000425 ± 0.0096; in assay [2] it was 0.000582 ± 0.0095; in assay [3] (setting [4]) it was below 0.0001; in assay [3] (setting [5]), 0.000307 ± 0.016.

Turning to UCCUGGAUGAGCUUGGUAAGUAUUUAGUAA, the “pre-steady-state target cleavage rate” value in assay [1] worked out at 0.00093 ± 0.0067; in assay [2] it was 0.000346 ± 0.01; in assay [3] (setting [4]), 0.000782 ± 0.0086; in assay [3] (setting [5]), 0.00123 ± 0.0084.

Consider UCCUGGUACAGCUUGCAUACAAUUUUCAAA, for which the “pre-steady-state target cleavage rate” value in assay [1] is 0.00118 ± 0.0056; in assay [2], 0.000835 ± 0.0044; in assay [3] (setting [4]), 0.00058 ± 0.0069; in assay [3] (setting [5]) it was 0.000393 ± 0.019.

For the sequence UCCUGGAACAGCUUGCAUUCAAUUUACAAA, the “pre-steady-state target cleavage rate” value was 0.000187 ± 0.014 in assay [1], 0.000198 ± 0.018 in assay [2], 0.000456 ± 0.0061 in assay [3] (setting [4]) and 0.000383 ± 0.017 in assay [3] (setting [5]).

As to UCCUGCUACAGCUACCAUAGUAUUUAGUAA, the “pre-steady-state target cleavage rate” value turned out to be 0.00172 ± 0.0042 in assay [1], 0.000943 ± 0.0087 in assay [2], 0.00225 ± 0.0025 in assay [3] (setting [4]) and 0.000342 ± 0.019 in assay [3] (setting [5]).

Consider UCCUGCUAGUGCUUGCAUAGUAUUUUCAAA, for which the “pre-steady-state target cleavage rate” value came to 0.000562 ± 0.0071 in assay [1], 0.00114 ± 0.0041 in assay [2], 0.00146 ± 0.0038 in assay [3] (setting [4]) and 0.000142 ± 0.032 in assay [3] (setting [5]).

As to UCCUGGUACAGCUUCCAUAGUAUUUACAAA, the “pre-steady-state target cleavage rate” value in assay [1] came to 0.000806 ± 0.0082; in assay [2] it was 0.00103 ± 0.0063; in assay [3] (setting [4]), 0.00151 ± 0.0026; in assay [3] (setting [5]), 0.00029 ± 0.02.

In the case of UCCUGGAACAGCUAGCAUAGUAUUUAGAAA, the “pre-steady-state target cleavage rate” value in assay [1] turned out to be 0.00121 ± 0.0059; in assay [2], 0.00289 ± 0.0034; in assay [3] (setting [4]), 0.00262 ± 0.0023; in assay [3] (setting [5]), 0.000175 ± 0.032.

Take UCCUGGAUGUCGAACCAUAGUUUUAGUUA: the “pre-steady-state target cleavage rate” value is 0.000201 ± 0.014 in assay [1], 0.000271 ± 0.015 in assay [2], below 0.0001 in assay [3] (setting [4]) and below 0.0001 in assay [3] (setting [5]).
